Measurements as given in patent US12370255B2 (Barinthus Biotherapeutics North America, Inc., priority 2017, dated 2025).
The same purity stands for every peptide and may come from a single statement. Some peptides are written in HELM: one residue between dots, names in brackets for other building blocks, links after the first $.

Experiment: general procedure: Fmoc solid-phase peptide synthesis
Details: conjugation step; for final HPLC purity: 254 nm

Substance | conjugation yield [% yield] | final HPLC purity [% AUC at 254 nm]
Mal-2B3W2 or Mal-(Glu(2B)3(Trp)2) | 66.7 | –
DBCO-(2BGWGWG)5, 2B5W10G15 or DBCO-(Glu(2B)5(Trp)10(Gly)15) (KGWGWGKGWGWGKGWGWGKGWGWGKGWGWG; DBCO; 2B-modified Glu residues; MOD_RES (1)..(1) 1-(4-aminobutyl)-2-butyl-1H-imidazo[4,5- c]quinolin-4-amine Lys; MOD_RES (7)..(7) 1-(4-aminobutyl)-2-butyl-1H-imidazo[4,5- c]quinolin-4-amine Lys; MOD_RES (13)..(13) 1-(4-aminobutyl)-2-butyl-1H-imidazo[4,5- c]quinolin-4-amine Lys; MOD_RES (19)..(19) 1-(4-aminobutyl)-2-butyl-1H-imidazo[4,5- c]quinolin-4-amine Lys; MOD_RES (25)..(25) 1-(4-aminobutyl)-2-butyl-1H-imidazo[4,5- c]quinol) | 26 | –
DBCO-2B4W6, 2B4W6 or DBCO-(Glu(2B)4(Trp)6) | – | >95
PEPTIDE1{[DBCO].[Glu(2BXy)].[Glu(2BXy)].[Glu(2BXy)].[Glu(2BXy)].[Glu(2BXy)].[am]}$$$$V2.0 | 63.4 | >95
DBCO-2B2W8, 2B2W8 or DBCO-(Glu(2B)2(Trp)8) | 16.3 | >95
DBCO-2BXy3W2, 2BXy3W2 or DBCO-(Glu(2BXy)3(Trp)2) | 38.1 | –
DBCO-2B6W4, 2B6W4 or DBCO-(Glu(2B)6(Trp)4) | – | >95
DBCO-(GG2B)5, 2B5G10 or DBCO-(Glu(2B)5(Gly)10) (GGEGGEGGEGGEGGE; DBCO; 2B-modified Glu residues; MOD_RES (3)..(3) 1-(4-aminobutyl)-2-butyl-1H-imidazo[4,5- c]quinolin-4-amine Glu; MOD_RES (6)..(6) 1-(4-aminobutyl)-2-butyl-1H-imidazo[4,5- c]quinolin-4-amine Glu; MOD_RES (9)..(9) 1-(4-aminobutyl)-2-butyl-1H-imidazo[4,5- c]quinolin-4-amine Glu; MOD_RES (12)..(12) 1-(4-aminobutyl)-2-butyl-1H-imidazo[4,5- c]quinolin-4-amine Glu; MOD_RES (15)..(15) 1-(4-aminobutyl)-2-butyl-1H-imidazo[4,5- c]quinolin) | 36.2 | >95
DBCO-2B1W4, 2B1W4 or DBCO-(Glu(2B)1(Trp)4) | 55.4 | >95
DBCO-2BXy1W4, 2BXy1W4 or DBCO-(Glu(2BXy)1(Trp)4) | 73.3 | >95
DBCO-2B3W2, 2B3W2 or DBCO-(Glu(2B)3(Trp)2) | 50.6 | >95
DBCO-2B2W3, 2B2W3 or DBCO-(Glu(2B)2(Trp)3) | 62.5 | >95
PEPTIDE1{[DBCO].[Glu(2B)].[Glu(2B)].[Glu(2B)].[Glu(2B)].[Glu(2B)].[am]}$$$$V2.0 | 62.6 | >95
